This note sets out measurements from patent publication US20250235508A1 (THE SCRIPPS RESEARCH INSTITUTE, priority 2015, published 2025).

The nature of this data set: general procedure: Fmoc solid-phase peptide synthesis. Particulars: whole synthesis, scale 0.1 mmol.

Substance HsQGTFTSDYSKYLDEXAAKEFIXWLLRA yielded an isolated yield of 11% yield. Moreover, the “final HPLC purity” value (analytical reversed phase C18 HPLC (Phenomenex, C18, 120A, 4.6x50 mm)) is over 95%.
